PubChem BioAssay AID504764 | Drosophila RNAi Screening Center – 2011
Aim: 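Genome-wide screen for regulators of Notch-driven gene expression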 (primary screen). Cell system: Drosophila Kc167 cells. Knock-down reagent: long dsRNA against Drosophila genes. Time to read-out: about 5 days (4 days dsRNA, then 24 h after transfection). Treatment: transfection of constitutively active membrane-tethered Notch lacking the extracellular domain, read 24 h later. Measured: 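Firefly luciferase from an E(spl)m3 reporter with active Notch, plus control-promoter and uninduced reporter wells for normalisation; unnormalised counts, duplicate wells a and b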. Reading the numbers: induced reporter light, run 1, well a and induced reporter light, run 1, well b: higher = more light from the Notch target reporter with active Notch; control promoter light, run 1, well a and control promoter light, run 1, well b: higher = more light from the viral control promoter (cell number, transfection, viability); uninduced reporter light, run 1, well a: higher = more light from the Notch target reporter without active Notch. Hit rule: 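Hit if the duplicate-averaged log2 ratio of induced to control-promoter light gives a plate-wise z beyond ±2, or induced to uninduced beyond ±1.8; weak-control or discordant-duplicate wells dropped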. Meaning of the calls: active = modifier hit (raised or lowered Notch signal); inactive = not a hit.
The deposit covers about 22,000 reagents; shown is an unselected part of those with a known target gene and a result. In the full data, 403 (1.9%) were called active. 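Unnormalised raw counts per well; ratio z-scores behind the hit calls and whether each hit raises or lowers signal are not deposited.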 Names joined by + are all predicted targets of the reagent. Not given: the amount of reagent.

CG7059 [DRSC16187] — induced reporter light, run 1, well a = 2.22e5; induced reporter light, run 1, well b = 1.89e5; control promoter light, run 1, well a = 2.31e5; control promoter light, run 1, well b = 2.12e5; uninduced reporter light, run 1, well a = 15075; activity call = inactive
CG3594 [DRSC04393] — induced reporter light, run 1, well a = 1.76e5; induced reporter light, run 1, well b = 1.82e5; control promoter light, run 1, well a = 1.34e5; control promoter light, run 1, well b = 1.47e5; uninduced reporter light, run 1, well a = 13955; activity call = inactive
CG3594 [DRSC21959] — activity call = inactive
mor [DRSC15378] — induced reporter light, run 1, well a = 85715; induced reporter light, run 1, well b = 84295; control promoter light, run 1, well a = 85015; control promoter light, run 1, well b = 91210; uninduced reporter light, run 1, well a = 11040; activity call = active
Mst84Dc [DRSC12599] — induced reporter light, run 1, well a = 96655; induced reporter light, run 1, well b = 1.09e5; control promoter light, run 1, well a = 83600; control promoter light, run 1, well b = 71330; uninduced reporter light, run 1, well a = 7235; activity call = inactive
crq [DRSC00810] — induced reporter light, run 1, well a = 1.02e5; induced reporter light, run 1, well b = 95315; control promoter light, run 1, well a = 84775; control promoter light, run 1, well b = 64775; uninduced reporter light, run 1, well a = 8142; activity call = inactive
Agpat3 [DRSC10445] — induced reporter light, run 1, well a = 1.04e5; induced reporter light, run 1, well b = 1.16e5; control promoter light, run 1, well a = 66960; control promoter light, run 1, well b = 81210; uninduced reporter light, run 1, well a = 8555; activity call = inactive
D [DRSC11132] — induced reporter light, run 1, well a = 1.88e5; induced reporter light, run 1, well b = 1.64e5; control promoter light, run 1, well a = 1.63e5; control promoter light, run 1, well b = 2.45e5; uninduced reporter light, run 1, well a = 8575; activity call = inactive
pyx [DRSC08510] — induced reporter light, run 1, well a = 1.08e5; induced reporter light, run 1, well b = 1.29e5; control promoter light, run 1, well a = 1.58e5; control promoter light, run 1, well b = 1.12e5; uninduced reporter light, run 1, well a = 7235; activity call = inactive
pyx [DRSC08511] — induced reporter light, run 1, well a = 84140; induced reporter light, run 1, well b = 97930; control promoter light, run 1, well a = 1.53e5; control promoter light, run 1, well b = 1.18e5; uninduced reporter light, run 1, well a = 4588; activity call = inactive
l(1)10Bb [DRSC20346] — induced reporter light, run 1, well a = 88580; induced reporter light, run 1, well b = 90565; control promoter light, run 1, well a = 89265; control promoter light, run 1, well b = 81500; uninduced reporter light, run 1, well a = 6650; activity call = inactive
CG4004 [DRSC19791] — induced reporter light, run 1, well a = 2.33e5; induced reporter light, run 1, well b = 2.38e5; control promoter light, run 1, well a = 2.75e5; control promoter light, run 1, well b = 2.96e5; uninduced reporter light, run 1, well a = 16825; activity call = inactive
CG4004 [DRSC19882] — induced reporter light, run 1, well a = 1.51e5; induced reporter light, run 1, well b = 1.56e5; control promoter light, run 1, well a = 2.83e5; control promoter light, run 1, well b = 2.86e5; uninduced reporter light, run 1, well a = 10820; activity call = inactive
CG34234 + Dh44-R2 [DRSC07278] — induced reporter light, run 1, well a = 79055; induced reporter light, run 1, well b = 90705; control promoter light, run 1, well a = 77555; control promoter light, run 1, well b = 90400; uninduced reporter light, run 1, well a = 7685; activity call = inactive
CG32032 [DRSC08961] — induced reporter light, run 1, well a = 1.41e5; induced reporter light, run 1, well b = 1.94e5; control promoter light, run 1, well a = 2.21e5; control promoter light, run 1, well b = 2.24e5; uninduced reporter light, run 1, well a = 12715; activity call = inactive
Crtc [DRSC10578] — induced reporter light, run 1, well a = 31445; induced reporter light, run 1, well b = 23410; control promoter light, run 1, well a = 38400; control promoter light, run 1, well b = 26690; uninduced reporter light, run 1, well a = 2945; activity call = inactive
CG31551 [DRSC12159] — induced reporter light, run 1, well a = 1.22e5; induced reporter light, run 1, well b = 1.32e5; control promoter light, run 1, well a = 88915; control promoter light, run 1, well b = 76980; uninduced reporter light, run 1, well a = 10475; activity call = inactive
CG31551 [DRSC22403] — activity call = inactive
